Record: PubChem BioAssay AID686938 (Drosophila RNAi Screening Center, 2013)
Test: 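Looking for CRAC channel components and the factors controlling them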 (primary screen). System: Drosophila S2R+ cells. Reagent: long dsRNA against Drosophila genes, about 0.25 µg dsRNA per well, roughly 10,000 cells. Timing: 5 days of knock-down before the calcium assay. Conditions: thapsigargin (SERCA pump blocker) to empty calcium stores; entry signal taken 4 min after adding it. Detection: 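Duplicate raw fluo-4 intensities per well from a plate reader, at rest and four minutes after thapsigargin emptied calcium stores; entry-to-rest ratio filled for only some wells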. Scale: calcium entry signal: higher = stronger calcium signal after store depletion; entry to resting ratio: higher = more calcium entry relative to resting level; resting calcium signal: higher = higher resting calcium signal. Rule for the call: 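Called when the plate z-score of the entry-to-rest ratio, mean of duplicates, falls below −3; wells with low overall dye signal (Fmax z below −2) or more than five off-targets excluded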. Meaning of the calls: active = strongly reduced calcium entry; inactive = no strong reduction.
The deposit covers about 23,000 reagents; shown is a random part of those with a known target gene and a result. Of all reagents, 75 (0.33%) were called active. 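Raw plate signals without normalisation; calls rest on plate z-scores that were not deposited; ratio present for only 364 wells.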 Not stated in the record: the dose of the treatment.

target	dsRNA	calcium entry signal, replicate 1 (fluorescence units)	calcium entry signal, replicate 2 (fluorescence units)	entry to resting ratio	resting calcium signal, replicate 1 (fluorescence units)	resting calcium signal, replicate 2 (fluorescence units)	Outcome
Egfrap	DRSC09963	1.70e7	2.82e7		8.30e6	1.25e7	inactive
Egfrap	DRSC09964	1.81e7	3.10e7		8.97e6	1.42e7	inactive
MICAL-like	DRSC09829	5.47e7	3.84e7		3.23e7	1.60e7	inactive
stol	DRSC01956	5.18e7	3.61e7		2.25e7	1.78e7	inactive
CG17806	DRSC15276	4.13e7	3.64e7		2.00e7	1.66e7	inactive
Cpr49Ab	DRSC05341	5.01e7	3.90e7		2.33e7	1.63e7	inactive
Elal	DRSC16662	4.00e7	3.47e7		1.77e7	1.48e7	inactive
P5CS	DRSC11831	3.69e7	4.93e7		1.76e7	3.09e7	inactive
P5CS	DRSC11832	2.90e7	5.47e7		1.48e7	2.26e7	inactive
spdo	DRSC13988	4.76e7	3.14e7		2.09e7	1.28e7	inactive
spag4	DRSC02973	3.74e7	4.83e7		1.81e7	2.04e7	inactive
P5cr	DRSC16782	2.51e7	3.04e7		3.56e7	1.36e7	inactive
Mur82C	DRSC12011	3.23e7	4.84e7		1.72e7	2.20e7	inactive
Mur82C	DRSC12212	2.71e7	1.97e7		1.46e7	1.10e7	inactive
CG30324	DRSC22655	4.13e7	3.22e7		2.52e7	1.54e7	inactive
CG13563	DRSC22153	3.43e7	6.49e7		1.66e7	2.88e7	inactive
CG18581	DRSC10324	3.77e7	6.43e7		1.93e7	2.42e7	inactive
trol	DRSC17714	3.46e7	4.14e7		1.98e7	1.85e7	inactive
trol	DRSC17718	5.40e7	3.82e7		2.40e7	1.82e7	inactive
trol	DRSC18613	3.64e7	5.21e7	1.9	1.97e7	2.19e7	inactive
trol	DRSC18814	4.86e7	4.93e7	2	2.45e7	1.99e7	inactive
chic	DRSC03507	3.41e7	4.04e7		1.82e7	2.00e7	inactive
CG42537	DRSC12519	2.84e7	2.84e7		1.41e7	1.52e7	inactive
JYalpha	DRSC17224	4.73e7	5.68e7	2	2.38e7	2.65e7	inactive

In a second layout: 2 of the entries above
CG30324 [DRSC22655]
- calcium entry signal, replicate 1 (fluorescence units): 4.13e7
- calcium entry signal, replicate 2 (fluorescence units): 3.22e7
- resting calcium signal, replicate 1 (fluorescence units): 2.52e7
- resting calcium signal, replicate 2 (fluorescence units): 1.54e7
- Outcome: inactive

CG13563 [DRSC22153]
- calcium entry signal, replicate 1 (fluorescence units): 3.43e7
- calcium entry signal, replicate 2 (fluorescence units): 6.49e7
- resting calcium signal, replicate 1 (fluorescence units): 1.66e7
- resting calcium signal, replicate 2 (fluorescence units): 2.88e7
- Outcome: inactive
